Measurements reported in PMC5327418.
Results are given in words; binding and its absence hold for the method and conditions named. Binding seen in cells or lysates may run through a third protein. Here binding means that the protein was enriched with, or labelled near, the bait; the list need not be complete. Values belong to the binder of their own block, whether it stands above or below them.

By UniProt entry, the sequences of proteins in these tests, tags left out.
UniProt P32569: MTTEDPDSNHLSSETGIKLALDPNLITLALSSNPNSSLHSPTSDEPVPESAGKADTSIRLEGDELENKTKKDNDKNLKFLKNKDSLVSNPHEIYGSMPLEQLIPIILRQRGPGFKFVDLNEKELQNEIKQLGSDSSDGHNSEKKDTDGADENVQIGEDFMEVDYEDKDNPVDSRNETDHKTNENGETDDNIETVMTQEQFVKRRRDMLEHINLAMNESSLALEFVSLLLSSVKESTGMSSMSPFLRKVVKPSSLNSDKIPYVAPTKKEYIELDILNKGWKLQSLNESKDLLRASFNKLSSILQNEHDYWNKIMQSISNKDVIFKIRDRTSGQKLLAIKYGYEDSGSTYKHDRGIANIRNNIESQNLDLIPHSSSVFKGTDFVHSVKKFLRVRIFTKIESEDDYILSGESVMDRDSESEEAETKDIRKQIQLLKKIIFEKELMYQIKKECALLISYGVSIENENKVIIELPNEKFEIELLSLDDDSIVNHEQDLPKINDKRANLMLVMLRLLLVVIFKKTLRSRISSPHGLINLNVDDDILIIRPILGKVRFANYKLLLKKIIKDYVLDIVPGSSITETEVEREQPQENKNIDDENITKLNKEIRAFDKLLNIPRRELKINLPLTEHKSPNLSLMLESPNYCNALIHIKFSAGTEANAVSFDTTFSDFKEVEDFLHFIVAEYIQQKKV

Target: Med17-HA (S. cerevisiae (endogenous in S288c)) (UniProt P32569)
Assay: affinity purification with mass spectrometry; CoIP of Med17-HA on anti-HA magnetic beads from cryoground yeast lysate, 2 h at 4 °C; 20 mM HEPES pH 7.5, 300 mM KOAc, 10% glycerol, 0.01% NP-40, 6 mM MnSO4, 1 mM DTT, Cyanase nuclease; parallel control CoIP from 15N-labelled wild type cells, mixing after purification (MAP); GeLC-MS/MS, three biological replicates

binding: binds
B1: Taf13 (protein, UniProt P11747 1-167)
chain: MSRKLKKTNLFNKDVSSLLYAYGDVPQPLQATVQCLDELVSGYLVDVCTNAFHTAQNSQRNKLRLEDFKFALRKDPIKLGRAEELIATNKLITEAKKQFNETDNQNSLKRYREEDEEGDEMEEDEDEQQVTDDDEEAAGRNSAKQSTDSKATKIRKQGPKNLKKTKK

binding: binds
B2: Taf11 (protein, UniProt Q04226 1-346)
chain: MTEPQGPLDTIPKVNYPPILTIANYFSTKQMIDQVISEDQDYVTWKLQNLRTGGTSINNQLNKYPKYKYQKTRINQQDPDSINKVPENLIFPQDILQQQTQNSNYEDTNTNEDENEKLAQDEQFKLLVTNLDKDQTNRFEVFHRTSLNKTQVKKLASTVANQTISENIRVFLQAVGKIYAGEIIELAMIVKNKWLTSQMCIEFDKRTKIGYKLKKYLKKLTFSIIENQQYKQDYQSDSVPEDEPDFYFDDEEVDKRETTLGNSLLQSKSLQQSDHNSQDLKLQLIEQYNKLVLQFNKLDVSIEKYNNSPLLPEHIREAWRLYRLQSDTLPNAYWRTQGEGQGSMFR

binding: binds
B3: Taf10 (protein, UniProt Q12030 1-206)
chain: MDFEEDYDAEFDDNQEGQLETPFPSVAGADDGDNDNDDSVAENMKKKQKREAVVDDGSENAFGIPEFTRKDKTLEEILEMMDSTPPIIPDAVIDYYLTKNGFNVADVRVKRLLALATQKFVSDIAKDAYEYSRIRSSVAVSNANNSQARARQLLQGQQQPGVQQISQQQHQQNEKTTASKVVLTVNDLSSAVAEYGLNIGRPDFYR

binding: binds
B4: Taf7 (protein, UniProt Q05021 1-590)
chain: MAVIRIKKPRGPGEKDQPLEGEPKLKRIRIKTKVTDEDIKPKPKLKINLKKKKESADGKEKKNSLKLKLNLKKNEEPVKKIHKAPKLRLKPIRIPGEAYDSEASDIEDDPLIESGVILRILPDIQLEFVKNSLESGDYSGISIKWKNERHAVVTINDVMYGAILVDLPTVIEVNKSVDRKNLLKTFDVSQMLLCIRPIQEEEEVYALEAPDTEDLVVKHFEGIEDEIWENKETFLKGYNGAPLSDMEAKHLKEIALKGYDYKHGISPPLYNVRNRRFRRKMDPNEIDYVEKVVDMLLKQDKQAEEVSYDLVDKSELQARQERVSSWENFKEEPGEPLSRPALKKEEIHTIASAVGKQGAEEEGEEGMEEEEEEDLDLGAAFESEEEGSGAEGDKEQQQEEVGDEVDQDTGGEDDDDDDDGDIEAAGGESESDDEKDENRQHTELLADELNELETTLAHTKHKLSKATNPLLKSRFIDSIKKLEKEAELKRKQLQQTEDSVQKQHQHRSDAETANNVEEEEEEEEEEEEEDEVDEDEEDDEENDEDEDNVHEREHIQENKVVRELDEAPAEETLDQNDLDMMMLFGAEGDE

binding: binds
B5: Tfb2 (protein, UniProt Q02939 1-513)
chain: MSDYSLKHSVTQYLEEIPQQVQNRLYTSPATCLAIYRILPPLAKFFIMAMVFNENEVPLLDLDKWVNSNGKLQFQNAIKSMKSLHLLIPNKSSGTLMINLNPTFKISLRNALTGGEVQNSFGVVVEENVVSLDLLDEYSANKWETILHFMVGTPLAKIPSEKVLNLLKHSKLMEEVNSTGEFKITNEGFQFLLQEINSQLWTLLLQYLKMIETSKMDLVDVLHFIFMLGALEVGKAYKIDALSETQRIMLQDMRDYGLVFQKHSNDSIFYPTKLALMLTSDTKTIRSASNAMDSVLRQNREEPSVNEDGANGKSTTDITTSDDLNKAGLKNQDIPDGSLIVETNFKIYSYSNSPLQIAVLSLFVHLKARFVNMVLGQITRESIRRALTNGITADQIIAYLETHAHPQMRRLAEEKLEKKLELDPNCKEPLQVLPPTVVDQIRLWQLELDRVITYEGSLYSDFETSQEYNLLSKYAQDIGVLLWKDDKKKKFFISKEGNSQVLDFAKRKLKKKQ

binding: binds
B6: Taf6 (protein, UniProt P53040 1-516)
chain: MSTQQQSYTIWSPQDTVKDVAESLGLENINDDVLKALAMDVEYRILEIIEQAVKFKRHSKRDVLTTDDVSKALRVLNVEPLYGYYDGSEVNKAVSFSKVNTSGGQSVYYLDEEEVDFDRLINEPLPQVPRLPTFTTHWLAVEGVQPAIIQNPNLNDIRVSQPPFIRGAIVTALNDNSLQTPVTSTTASASVTDTGASQHLSNVKPGQNTEVKPLVKHVLSKELQIYFNKVISTLTAKSQADEAAQHMKQAALTSLRTDSGLHQLVPYFIQFIAEQITQNLSDLQLLTTILEMIYSLLSNTSIFLDPYIHSLMPSILTLLLAKKLGGSPKDDSPQEIHEFLERTNALRDFAASLLDYVLKKFPQAYKSLKPRVTRTLLKTFLDINRVFGTYYGCLKGVSVLEGESIRFFLGNLNNWARLVFNESGITLDNIEEHLNDDSNPTRTKFTKEETQILVDTVISALLVLKKDLPDLYEGKGEKVTDEDKEKLLERCGVTIGFHILKRDDAKELISAIFFGE

binding: binds
B7: Tfb1 (protein, UniProt P32776 1-642)
chain: MSHSGAAIFEKVSGIIAINEDVSPAELTWRSTDGDKVHTVVLSTIDKLQATPASSEKMMLRLIGKVDESKKRKDNEGNEVVPKPQRHMFSFNNRTVMDNIKMTLQQIISRYKDADIYEEKRRREESAQHTETPMSSSSVTAGTPTPHLDTPQLNNGAPLINTAKLDDSLSKEKLLTNLKLQQSLLKGNKVLMKVFQETVINAGLPPSEFWSTRIPLLRAFALSTSQKVGPYNVLSTIKPVASSENKVNVNLSREKILNIFENYPIVKKAYTDNVPKNFKEPEFWARFFSSKLFRKLRGEKIMQNDRGDVIIDRYLTLDQEFDRKDDDMLLHPVKKIIDLDGNIQDDPVVRGNRPDFTMQPGVDINGNSDGTVDILKGMNRLSEKMIMALKNEYSRTNLQNKSNITNDEEDEDNDERNELKIDDLNESYKTNYAIIHLKRNAHEKTTDNDAKSSADSIKNADLKVSNQQMLQQLSLVMDNLINKLDLNQVVPNNEVSNKINKRVITAIKINAKQAKHNNVNSALGSFVDNTSQANELEVKSTLPIDLLESCRMLHTTCCEFLKHFYIHFQSGEQKQASTVKKLYNHLKDCIEKLNELFQDVLNGDGESMSNTCTAYLKPVLNSITLATHKYDEYFNEYNNNSN

binding: binds
B8: Tfb3 (protein, UniProt Q03290 1-321)
chain: MLMDEYEENKDMCPICKTDRYLSPDVKFLVNPECYHRICESCVDRIFSLGPAQCPYKGCDKILRKNKFKTQIFDDVEVEKEVDIRKRVFNVFNKTIDDFNGDLVEYNKYLEEVEDIIYKLDHGIDVAKTEEKLRTYEELNKQLIMNNLERSRTEIESFEQRQKFEKEMKLKKRLLERQIEEEERMNKEWTKKEIVNRLSTTTQDINETIEGVKNTVKLKKSSARRKLEELNRVLKNNPYFNSNVNVQNSRLKDAVPFTPFNGDREAHPRFTLKGSVYNDPFIKDLEHRKEFIASGFNTNYAYERVLTEAFMGLGCVISEEL

binding: binds
B9: Taf8 (protein, UniProt Q03750 1-510)
chain: MTSKTSESGTGTQSTIVQLRNLPDLTEISHLEIDAPVVEILKKTVLFQLNSLNICISNFALDELVNLVTVQMDGMFRNLHNLTLLQRRSQASQADLKLLLREFNLDAPSLYQQFQASEFIKSKHSTEYEKLMSWSSLAALPHNEEDEEDELNNIEEQQNEINVLLPPSNPLEKQIPSWLPNFPPDHTYKFTPEFNHPITDLKTIKKEIVKESQESEKALLNLNKSLSHISSASNTPQPPGLDDEDAIEQQLEIWGNALEERKPTITEKSFNENNIEQYAKYRVELARERVTKFEVNQLKRTKNPFLKISETLYLPESPHQSHKTIQKTIELQFRKSMTLFMHNLPKVQKLKKEKIRMAKEERAKSLKRRQEELISQRTKREQDEGHDLELLLNNEHARDAADDTTTPNALNNSTIVINTNAEDEDDDINLFGILGSSEDENEMSSMPAENLVAESEPPTMTAQDTTNTTPVAHNTTNIDATTSHSPHSTPNENAPTSPPADIATDHDITM

binding: binds
B10: Taf9 (protein, UniProt Q05027 1-157)
chain: MNGGGKNVLNKNSVGSVSEVGPDSTQEETPRDVRLLHLLLASQSIHQYEDQVPLQLMDFAHRYTQGVLKDALVYNDYAGSGNSAGSGLGVEDIRLAIAARTQYQFKPTAPKELMLQLAAERNKKALPQVMGTWGVRLPPEKYCLTAKEWDLEDPKSM
